The values below come from article PMC10125973, “A small secreted protein NICOL regulates lumicrine-mediated sperm maturation and male fertility” (Nature Communications, 2023).

Protein sequences, listed by entry. Tags and fused reporters are not part of them. Residues count along the entry.
UniProt Q61220, residues 25-819: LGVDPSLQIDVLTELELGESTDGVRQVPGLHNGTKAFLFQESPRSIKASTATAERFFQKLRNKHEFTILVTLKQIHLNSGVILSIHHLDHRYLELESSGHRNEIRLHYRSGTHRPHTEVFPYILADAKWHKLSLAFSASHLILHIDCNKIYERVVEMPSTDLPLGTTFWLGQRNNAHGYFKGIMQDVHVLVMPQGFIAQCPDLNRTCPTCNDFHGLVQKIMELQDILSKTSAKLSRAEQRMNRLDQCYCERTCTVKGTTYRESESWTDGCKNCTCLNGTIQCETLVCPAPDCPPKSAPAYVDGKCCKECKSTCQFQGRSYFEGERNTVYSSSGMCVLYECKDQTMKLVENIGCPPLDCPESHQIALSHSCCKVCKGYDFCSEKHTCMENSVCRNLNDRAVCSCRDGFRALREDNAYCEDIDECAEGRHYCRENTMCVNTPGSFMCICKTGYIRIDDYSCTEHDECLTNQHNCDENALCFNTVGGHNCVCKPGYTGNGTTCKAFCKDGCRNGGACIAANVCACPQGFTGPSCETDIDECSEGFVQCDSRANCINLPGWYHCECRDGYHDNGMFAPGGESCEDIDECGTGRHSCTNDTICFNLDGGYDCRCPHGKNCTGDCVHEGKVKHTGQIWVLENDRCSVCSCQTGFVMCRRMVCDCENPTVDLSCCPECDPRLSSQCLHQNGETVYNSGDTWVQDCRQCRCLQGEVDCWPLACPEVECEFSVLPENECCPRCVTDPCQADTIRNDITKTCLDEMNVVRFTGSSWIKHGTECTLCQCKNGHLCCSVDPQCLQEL
UniProt Q78DX7, residues 29-1854: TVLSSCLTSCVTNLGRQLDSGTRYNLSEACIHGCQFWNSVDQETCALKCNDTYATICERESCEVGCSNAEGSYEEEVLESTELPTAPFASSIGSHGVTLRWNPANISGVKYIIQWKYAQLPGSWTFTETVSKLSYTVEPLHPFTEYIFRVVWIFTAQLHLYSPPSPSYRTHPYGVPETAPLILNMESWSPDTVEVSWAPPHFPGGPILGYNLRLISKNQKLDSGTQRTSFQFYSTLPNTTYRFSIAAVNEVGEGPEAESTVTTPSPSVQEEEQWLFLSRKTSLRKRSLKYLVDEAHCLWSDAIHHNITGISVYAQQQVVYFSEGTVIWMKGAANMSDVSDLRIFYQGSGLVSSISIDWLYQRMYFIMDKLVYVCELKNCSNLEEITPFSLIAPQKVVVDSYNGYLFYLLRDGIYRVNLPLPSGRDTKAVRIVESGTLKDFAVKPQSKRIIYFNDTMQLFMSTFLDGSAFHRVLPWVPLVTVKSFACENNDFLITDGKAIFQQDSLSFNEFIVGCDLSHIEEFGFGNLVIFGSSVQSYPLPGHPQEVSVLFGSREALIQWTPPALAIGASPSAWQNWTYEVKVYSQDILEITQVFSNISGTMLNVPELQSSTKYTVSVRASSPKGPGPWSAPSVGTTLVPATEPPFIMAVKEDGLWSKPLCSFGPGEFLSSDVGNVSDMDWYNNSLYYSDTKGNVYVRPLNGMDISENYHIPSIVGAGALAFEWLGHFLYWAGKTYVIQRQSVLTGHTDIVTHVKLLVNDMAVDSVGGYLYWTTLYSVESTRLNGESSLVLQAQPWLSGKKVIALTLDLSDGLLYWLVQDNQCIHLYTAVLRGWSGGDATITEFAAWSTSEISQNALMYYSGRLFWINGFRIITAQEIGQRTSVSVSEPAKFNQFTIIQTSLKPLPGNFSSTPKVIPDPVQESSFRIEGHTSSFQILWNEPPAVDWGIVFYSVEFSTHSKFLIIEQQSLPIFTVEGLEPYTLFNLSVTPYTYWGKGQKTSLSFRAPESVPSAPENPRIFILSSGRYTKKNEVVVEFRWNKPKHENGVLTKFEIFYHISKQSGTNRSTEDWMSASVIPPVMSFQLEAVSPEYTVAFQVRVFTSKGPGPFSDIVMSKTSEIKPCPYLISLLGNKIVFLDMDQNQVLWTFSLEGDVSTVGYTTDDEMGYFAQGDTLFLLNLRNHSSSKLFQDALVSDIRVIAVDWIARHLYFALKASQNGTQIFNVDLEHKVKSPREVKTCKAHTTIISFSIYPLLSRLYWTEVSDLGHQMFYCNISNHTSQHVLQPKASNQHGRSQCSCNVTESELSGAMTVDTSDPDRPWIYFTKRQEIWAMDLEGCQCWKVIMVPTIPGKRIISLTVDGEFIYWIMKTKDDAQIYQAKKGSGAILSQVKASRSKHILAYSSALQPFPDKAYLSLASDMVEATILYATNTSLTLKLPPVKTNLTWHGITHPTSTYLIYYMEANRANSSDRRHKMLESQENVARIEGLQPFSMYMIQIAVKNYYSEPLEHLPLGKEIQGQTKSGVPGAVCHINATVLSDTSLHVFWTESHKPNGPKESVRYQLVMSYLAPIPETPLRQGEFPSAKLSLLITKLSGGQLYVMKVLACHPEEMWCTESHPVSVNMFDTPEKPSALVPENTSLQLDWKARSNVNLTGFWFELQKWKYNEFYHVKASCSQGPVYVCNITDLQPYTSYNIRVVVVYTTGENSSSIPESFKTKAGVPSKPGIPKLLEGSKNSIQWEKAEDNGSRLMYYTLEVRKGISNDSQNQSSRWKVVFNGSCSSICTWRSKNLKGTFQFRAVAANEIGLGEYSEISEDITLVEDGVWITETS

These are yes or no findings as the source states them, for the method shown. For part of these data: In cells and extracts the contact can be indirect. Some entries that bind do so weakly or less than the wild type. For part of these data: Tags and fused reporters may be left off the sequences shown.

Assay [1] has as its target T1, NICOL-PA-Rho1D4 from the Clgn-Nicol transgene (mouse) (UniProt Q3UR78).
T1 sequence: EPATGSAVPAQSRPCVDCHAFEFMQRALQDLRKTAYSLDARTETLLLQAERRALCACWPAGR
The assay is described as follows: co-IP; testis lysates of Clgn-Nell2 and Clgn-Nicol transgenic mice; NICOL immunoprecipitated with anti-Rho1D4 and Dynabeads protein G; NICOL detected with anti-PA, NELL2 with anti-NELL2.

Assay [2] concerns the target T2, NELL2-interacting cofactor for lumicrine signalling (NICOL), 6xHis-tagged recombinant (mouse) (UniProt Q3UR78).
T2 sequence: T1 sequence
The assay is described as follows: pull-down; purified NICOL conjugated to NHS-activated agarose; lysate of 293 F cells expressing ROS1 ectodomain (1 ml of 1 mg protein/ml), overnight at 4 °C; immunoblot with anti-Rho1D4; only the target purified. Background: A western blot detects proteins with antibodies after separation by electrophoresis.

Assay [3] addresses T2, NELL2-interacting cofactor for lumicrine signalling (NICOL), 6xHis-tagged recombinant (mouse). The assay is described as follows: pull-down; purified NICOL conjugated to NHS-activated agarose (100 ug on 25 ul beads); purified recombinant NELL2 applied; immunoblot with anti-NELL2; both purified.

With “NELL2 in testis lysate of Clgn-Nell2 transgenic mice (from UniProt Q61220 25-819)”, the binding entry in assay [1] is listed as “binds”.

For “ROS1 extracellular domain followed by 8xHis and Rho1D4 epitope (from UniProt Q78DX7 29-1854) (domain or fragment)”, the binding result in assay [2] was “binds”.

As to “neural epidermal growth factor-like like 2 (NELL2), C-terminally 6xHis-tagged recombinant (from UniProt Q61220 25-819)”, in assay [3], the binding result is listed as “binds”.
